Screen size: about 320,000 compounds; about 2,100 (0.66%) were called active. Inconclusive means that the source gave no clear call. Such entries were picked first, then a sample of the others. The call rests on the fitted dose curve; in most records, active means well fitted inhibition curve with a large enough effect in the signal ratio, with a control signal flat (not every such curve was filed as active); inconclusive means small, poorly fitted or top-dose-only effect, or effect the other way, or a change in a side signal; inactive means flat fitted curve, though single readings scatter; the % refers to the signal ratio. Potencies beside an inconclusive call are fits to weak or partial responses and may not hold up.
Experiment: qHTS Assay for Lipid Storage Modulators in Drosophila S3 Cells
Details: BODIPY lipid droplet fluorescence, 18-24 h, cells fed with added oleic acid; lipid storage change, negative = inhibition: at 46.1 µM (top of the series) unless noted
Method in brief: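 Drosophila S3 cells got compounds at several concentrations plus oleic acid (400 uM solution). Laser-scanning cytometry with 488 nm excitation read lipid droplets at 500-530 nm and cells at 575-640 nm. Percent activity was relative to 20 uM Triacsin C.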
For `CN(C(=O)CN1C(=O)C2C3CC(C(Br)C3Br)C2C1=O)C1CCCCC1` (centres undefined), the lipid storage change, negative = inhibition was inconclusive: 71.1%. In the case of `COc1ccc(NC(=O)c2ccc(COCC(F)(F)C(F)F)cc2)cc1OC`, the lipid storage change, negative = inhibition is reported as inconclusive: -19.9%. For `C=CCOn1c(=O)c(-c2ccccc2)[n+]([O-])c2ccccc21`, the lipid storage change, negative = inhibition was inconclusive: 1.37%. With `CC(C)(C)CC(C)(C)NC(=S)Nc1ccc(S(=O)(=O)N2CCOCC2)cc1` the lipid storage change, negative = inhibition was inconclusive: -89.9%. For `COc1ccc(N2CCN(C(=O)C3CCN(C(=O)c4ccc([N+](=O)[O-])cc4)CC3)CC2)cc1`, the lipid storage change, negative = inhibition was inconclusive: -3.36%. For `COCCNC(=O)COc1cc(=O)n(C)c2ccccc12`, the Potency was inconclusive: 0.82 µM [activator, full curve, poor fit]. In the case of `C/C(=N\NS(=O)(=O)c1ccc([N+](=O)[O-])cc1)c1c[nH]c2ccccc12`, the lipid storage change, negative = inhibition is reported as “inactive”. In the case of `CCCCN(C(=O)CSc1nnc(-c2ccc(Cl)cc2)o1)c1c(N)n(CC(C)C)c(=O)[nH]c1=O`, the lipid storage change, negative = inhibition is reported as inconclusive: 7.82%. For `CCOC(=O)c1ccc(N/C=C\C(=O)c2cccc(OC)c2)cc1`, the Potency was inconclusive: 0.58 µM [activator, single point]. In the case of `O=C(NC(=S)Nc1sc2c(c1C(=O)O)CCCC2)c1ccccc1`, the Potency is reported as inconclusive: 29.1 µM [activator, single point]. With `COC(=O)c1ccccc1NC(=S)N1CCC(N2CCCCC2)CC1` the lipid storage change, negative = inhibition was inconclusive: -20.3%. For `Cc1ccc2c(c1)c1ncnc(N3CCOCC3)c1n2C`, the Potency was inconclusive: 2.91 µM [activator, partial curve]. With `CCOC(=O)C1C(=O)NC(N2CCN(c3ccccc3)CC2)=NC1c1ccco1` (centres undefined) the lipid storage change, negative = inhibition was inconclusive: 43.2%. For `O=C(Nc1c2c(nn1-c1cccc(Cl)c1)CS(=O)C2)c1ccc2c(c1)OCO2` (centres undefined), the lipid storage change, negative = inhibition was inconclusive: 27.4%. For `CCCCC(=O)OCC(=O)Nc1ccc(OC(F)F)cc1`, the lipid storage change, negative = inhibition was inconclusive: 55.5%. For `CCOC(=O)NC(=O)C(=CNc1cccc(OC)c1)C(=O)NC(=O)OCC`, the lipid storage change, negative = inhibition was inconclusive: 3.52%. For `COC(=O)N/N=C1\CCCc2ccccc21`, the Potency was inconclusive: 8.2 µM [activator, partial curve, poor fit]. In the case of `Cc1cc(C(=O)CN2C(=O)C(=O)N(C3CCCC3)C2=O)c(C)n1CCc1ccc(F)cc1`, the Potency is reported as active: 20.6 µM. With `Cc1ccc(S(=O)(=O)N(C)C)cc1NC(=O)COc1ccccc1C(=O)Nc1ccccc1` the lipid storage change, negative = inhibition was inconclusive: 31.2%. For `COc1ccc(-n2ccnc(SCC(=O)NC3CCCC3)c2=O)cc1`, the Potency was inconclusive: 29.1 µM [activator, single point]. For `CCOC(=O)C1C(=O)NC(c2ccccc2)=NC1c1ccc(F)cc1` (centres undefined), the lipid storage change, negative = inhibition was inconclusive: 9.72%. In the case of `COc1ccc(CNC(=O)CN(C(=O)c2csnn2)c2ccc(F)cc2)cc1`, the Potency is reported as inconclusive: 0.731 µM [activator, single point]. With `COc1ccc(NC(=O)Cn2c3ccccc3c3nc4n(c(=O)c32)CCS4)cc1` the lipid storage change, negative = inhibition was inconclusive: -91%. With `CC(C)(C)c1ccc(SCCc2ccccn2)cc1` the lipid storage change, negative = inhibition was inconclusive: -24.4%. In the case of `O=C(Cc1ccc(F)cc1)OCn1nnc2ccccc2c1=O`, the lipid storage change, negative = inhibition is reported as inconclusive: 41.5%. In the case of `CCn1c(O)c(N=Nc2ccc3ccccc3n2)c2ccccc21`, the Potency is reported as inconclusive: 0.82 µM [activator, full curve, poor fit]. With `Cc1ccc(/C=C(\NC(=O)c2ccccc2)C(=O)NCCc2ccccn2)o1` the lipid storage change, negative = inhibition was inconclusive: 25.2%. In the case of `CCCOc1ccc(C2C(C(=O)c3ccc(C)o3)=C(O)C(=O)N2Cc2ccco2)cc1OCC` (centres undefined), the Potency is reported as inconclusive: 29.1 µM [activator, single point]. For `O=C(CN1C(=O)c2ccc([N+](=O)[O-])cc2C1=O)NC1CCS(=O)(=O)C1` (centres undefined), the lipid storage change, negative = inhibition was inconclusive: 5.59%. For `O=C(OCc1nnc(-c2ccccc2)o1)c1ccc(-n2cnnn2)cc1`, the lipid storage change, negative = inhibition was “inconclusive”. In the case of `CCOc1ccc(S(=O)(=O)NCCC(=O)NCCCSc2ccccc2)cc1`, the Potency is reported as inconclusive: 1.16 µM [rising, single point]. In the case of `C=CC[n+]1c(C)csc1Nc1ccc(C)cc1`, the Potency is reported as inconclusive: 6.51 µM [rising, single point]. For `c1ccc2c(CNCCN3CCOCC3)cccc2c1`, the lipid storage change, negative = inhibition was inconclusive: -13.5%. In the case of `CCOc1cc(CNCCO)cc(Br)c1OCc1ccc(Cl)cc1Cl`, the lipid storage change, negative = inhibition is reported as inconclusive: -92.4%. With `COc1ccc(S(=O)(=O)N2Cc3ccccc3CC2C(=O)Nc2ccc3c(c2)OCO3)cc1` (centres undefined) the Potency was inconclusive: 0.651 µM [activator, single point]. For `Cc1cccc(-n2ncc3c2CCCC3NC(=O)CCN2CCCCO2)c1C` (centres undefined), the lipid storage change, negative = inhibition was “inactive”. In the case of `CCCCCCCNC(=O)C1CC(=O)N(C)C(=Nc2ccc(OC)cc2)S1` (centres undefined), the Potency is reported as inconclusive: 14.6 µM [activator, partial curve]. In the case of `CC1=C(C(=O)OC2CCCCC2)C(c2ccccc2F)NC(=O)N1` (centres undefined), the Potency is reported as inconclusive: 6.51 µM [activator, single point]. For `CCOC(=O)/C(C#N)=C/N1CCOCC1`, the lipid storage change, negative = inhibition was “inactive”. With `Cn1cc(S(=O)(=O)CC(=O)Nc2ccc(Br)cc2)c2ccccc21` the Potency was inconclusive: 29.1 µM [activator, single point]. In the case of `CCn1c(=O)cc(N2CCC3(CC2)OCCO3)[nH]c1=O`, the lipid storage change, negative = inhibition is reported as inconclusive: -15.2%. In the case of `O=C(CN1CCS(=O)(=O)CC1)N/N=C/c1cccc(C(F)(F)F)c1`, the lipid storage change, negative = inhibition is reported as inconclusive: -35.9% [at 0.00295 µM]. For `O=C(CSc1ncnc2sc(-c3ccccc3)cc12)NC1CCS(=O)(=O)C1` (centres undefined), the lipid storage change, negative = inhibition was inconclusive: -7.02%. In the case of `CCNC(=S)NNC(=O)c1ccoc1C`, the lipid storage change, negative = inhibition is reported as inconclusive: -0.623%. In the case of `O=C(CCc1nnc(-c2ccc(-c3ccccc3)cc2)o1)N1CCCCC1`, the lipid storage change, negative = inhibition is reported as inconclusive: -44.9%. For `COC(=O)N/N=C(\CCC(=O)O)c1cccs1`, the lipid storage change, negative = inhibition was inconclusive: -13.6%. With `CCn1nc(C(=O)NNC(=O)COc2ccccc2C)c2ccccc2c1=O` the lipid storage change, negative = inhibition was inconclusive: 26.4%. In the case of `Cn1c(/C(C#N)=C(\O)c2ccc(S(=O)(=O)N3CCCCC3)cc2)nc2ccccc21`, the lipid storage change, negative = inhibition is reported as inconclusive: -40.5%. With `COC(=O)[C@@]12CCCN1[C@H](c1ccc(-c3ccc(C(C)=O)cc3)c(OC)c1)[C@H]1C(=O)N(C)C(=O)[C@H]12` the lipid storage change, negative = inhibition was inconclusive: 12.1%.

Reference: PubChem BioAssay AID2685 (National Center for Advancing Translational Sciences (NCATS), 2010)
On the % scale 0 is the no-effect control and ±100 the full control effect; potency means the concentration at half of the fitted maximal effect.
